Some of the results follow.
Compound: COC(=O)[C@H](CCSC)NC(=O)C1=C(C=C(C=C1)NC[C@H](CS)N)C2=CC=CC=C2
Experiment: log2 fold change, soluble protein after heating vs DMSO (PISA); higher = thermal stabilisation; K562 lysate, 10 uM; active = over 0.2 and 3.5 SD of the protein, either way, in both replicates (recomputed)
How it was run: (§1)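 Values give the log-two fold change in thermal stability against solvent controls, from duplicates. Crude K562 extract at 1 mg/mL protein, made by dounce homogenisation in PBS pH 7.4 with 1 mM MgCl2, was treated with 10 μM compound for 30 min. After 3 min heating across 48°C-58°C, aliquots were pooled, adjusted to 0.5% NP-40 at 4°C and centrifuged at 21,000xg for 90 min. The supernatant was measured by TMTpro 16plex LC-MS/MS with channel sums equalised.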

By UniProt entry, the sequences of proteins in these tests, tags left out. Where a name states a change or a piece, a line headed by the entry shows the natural chain unless it says otherwise.
UniProt O43768: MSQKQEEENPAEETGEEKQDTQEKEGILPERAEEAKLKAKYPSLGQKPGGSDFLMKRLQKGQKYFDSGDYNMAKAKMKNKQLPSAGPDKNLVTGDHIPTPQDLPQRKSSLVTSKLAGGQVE
UniProt P54852: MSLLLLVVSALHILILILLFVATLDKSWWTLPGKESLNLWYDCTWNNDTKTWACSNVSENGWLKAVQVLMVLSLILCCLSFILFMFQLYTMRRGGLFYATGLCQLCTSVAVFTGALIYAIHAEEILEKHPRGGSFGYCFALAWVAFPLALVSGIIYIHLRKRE
UniProt P06730, whole entry, looked up: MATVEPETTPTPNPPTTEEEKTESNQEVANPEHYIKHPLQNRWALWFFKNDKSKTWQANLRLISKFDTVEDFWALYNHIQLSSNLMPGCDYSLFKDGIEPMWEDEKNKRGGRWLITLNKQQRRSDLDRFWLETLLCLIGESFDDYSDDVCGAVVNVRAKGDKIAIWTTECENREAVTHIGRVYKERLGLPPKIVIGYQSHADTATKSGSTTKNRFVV
UniProt O75356: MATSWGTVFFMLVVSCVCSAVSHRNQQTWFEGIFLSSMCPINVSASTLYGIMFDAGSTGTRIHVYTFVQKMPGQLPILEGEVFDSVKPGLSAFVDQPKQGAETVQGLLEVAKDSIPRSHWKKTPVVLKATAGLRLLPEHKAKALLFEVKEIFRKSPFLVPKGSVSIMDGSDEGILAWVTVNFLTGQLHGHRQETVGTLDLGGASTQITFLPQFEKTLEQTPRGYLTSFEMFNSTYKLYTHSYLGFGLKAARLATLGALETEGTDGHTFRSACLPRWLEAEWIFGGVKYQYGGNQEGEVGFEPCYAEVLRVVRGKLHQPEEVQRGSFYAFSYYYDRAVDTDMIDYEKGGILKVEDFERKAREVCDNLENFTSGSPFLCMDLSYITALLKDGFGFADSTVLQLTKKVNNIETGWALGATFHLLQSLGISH
UniProt P07814: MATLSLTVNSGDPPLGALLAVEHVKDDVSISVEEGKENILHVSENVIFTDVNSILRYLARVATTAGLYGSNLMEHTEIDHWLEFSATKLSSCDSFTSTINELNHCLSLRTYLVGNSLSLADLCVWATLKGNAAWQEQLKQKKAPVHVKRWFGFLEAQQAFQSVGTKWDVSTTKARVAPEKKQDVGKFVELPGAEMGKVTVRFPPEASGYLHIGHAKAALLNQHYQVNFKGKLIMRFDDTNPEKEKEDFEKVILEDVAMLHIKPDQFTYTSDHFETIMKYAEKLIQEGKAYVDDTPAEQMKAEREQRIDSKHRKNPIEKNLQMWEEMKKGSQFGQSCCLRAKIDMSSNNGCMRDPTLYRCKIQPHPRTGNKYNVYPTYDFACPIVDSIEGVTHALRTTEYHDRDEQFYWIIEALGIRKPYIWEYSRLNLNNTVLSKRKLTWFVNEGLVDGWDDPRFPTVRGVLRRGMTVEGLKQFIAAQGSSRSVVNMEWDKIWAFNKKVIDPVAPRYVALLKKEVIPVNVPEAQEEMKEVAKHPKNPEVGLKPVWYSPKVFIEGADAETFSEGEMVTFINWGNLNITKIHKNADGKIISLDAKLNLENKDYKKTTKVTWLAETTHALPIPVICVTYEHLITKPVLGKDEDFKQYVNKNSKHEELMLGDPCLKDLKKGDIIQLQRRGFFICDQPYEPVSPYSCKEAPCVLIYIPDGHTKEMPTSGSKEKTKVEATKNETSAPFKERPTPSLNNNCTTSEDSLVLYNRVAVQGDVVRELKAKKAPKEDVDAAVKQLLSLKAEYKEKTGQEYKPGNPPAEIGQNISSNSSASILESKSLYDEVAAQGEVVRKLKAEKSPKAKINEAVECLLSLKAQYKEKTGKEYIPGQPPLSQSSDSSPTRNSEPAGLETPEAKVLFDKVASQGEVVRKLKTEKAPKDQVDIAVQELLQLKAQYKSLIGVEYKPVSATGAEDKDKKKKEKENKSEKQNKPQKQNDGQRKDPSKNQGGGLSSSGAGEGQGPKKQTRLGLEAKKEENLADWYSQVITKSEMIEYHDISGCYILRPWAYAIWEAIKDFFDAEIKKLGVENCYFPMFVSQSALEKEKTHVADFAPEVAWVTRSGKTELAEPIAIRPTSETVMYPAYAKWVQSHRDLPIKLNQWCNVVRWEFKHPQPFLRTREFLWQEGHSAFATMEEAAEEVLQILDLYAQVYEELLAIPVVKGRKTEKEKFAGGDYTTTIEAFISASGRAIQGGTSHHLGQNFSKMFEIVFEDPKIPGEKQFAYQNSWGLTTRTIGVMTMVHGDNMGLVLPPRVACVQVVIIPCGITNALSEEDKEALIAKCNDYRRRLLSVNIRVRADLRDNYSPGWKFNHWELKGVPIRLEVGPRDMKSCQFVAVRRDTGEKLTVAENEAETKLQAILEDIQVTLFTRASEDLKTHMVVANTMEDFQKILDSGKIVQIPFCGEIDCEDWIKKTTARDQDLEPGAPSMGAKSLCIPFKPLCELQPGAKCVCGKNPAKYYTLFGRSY
UniProt Q9UI10, whole entry, looked up: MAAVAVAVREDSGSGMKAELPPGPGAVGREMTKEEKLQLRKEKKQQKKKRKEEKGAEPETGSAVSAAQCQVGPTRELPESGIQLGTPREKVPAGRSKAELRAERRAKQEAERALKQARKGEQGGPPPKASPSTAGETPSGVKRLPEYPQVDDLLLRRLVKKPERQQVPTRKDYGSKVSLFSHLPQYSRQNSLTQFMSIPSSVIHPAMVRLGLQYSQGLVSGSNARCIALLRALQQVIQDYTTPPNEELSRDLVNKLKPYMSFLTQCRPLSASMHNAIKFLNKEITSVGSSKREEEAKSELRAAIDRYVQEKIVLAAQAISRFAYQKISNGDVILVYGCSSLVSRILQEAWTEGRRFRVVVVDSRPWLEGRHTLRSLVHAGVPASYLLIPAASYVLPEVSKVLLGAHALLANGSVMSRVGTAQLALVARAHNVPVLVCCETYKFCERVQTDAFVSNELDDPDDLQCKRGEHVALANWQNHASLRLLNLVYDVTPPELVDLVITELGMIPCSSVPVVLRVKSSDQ
UniProt Q5J8M3, whole entry, looked up: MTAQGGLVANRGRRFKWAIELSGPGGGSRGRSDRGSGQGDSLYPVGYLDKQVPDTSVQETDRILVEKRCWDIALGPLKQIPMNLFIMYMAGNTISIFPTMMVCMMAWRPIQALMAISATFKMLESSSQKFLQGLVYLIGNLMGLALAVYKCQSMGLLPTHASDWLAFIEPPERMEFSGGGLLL
UniProt Q8NFI3: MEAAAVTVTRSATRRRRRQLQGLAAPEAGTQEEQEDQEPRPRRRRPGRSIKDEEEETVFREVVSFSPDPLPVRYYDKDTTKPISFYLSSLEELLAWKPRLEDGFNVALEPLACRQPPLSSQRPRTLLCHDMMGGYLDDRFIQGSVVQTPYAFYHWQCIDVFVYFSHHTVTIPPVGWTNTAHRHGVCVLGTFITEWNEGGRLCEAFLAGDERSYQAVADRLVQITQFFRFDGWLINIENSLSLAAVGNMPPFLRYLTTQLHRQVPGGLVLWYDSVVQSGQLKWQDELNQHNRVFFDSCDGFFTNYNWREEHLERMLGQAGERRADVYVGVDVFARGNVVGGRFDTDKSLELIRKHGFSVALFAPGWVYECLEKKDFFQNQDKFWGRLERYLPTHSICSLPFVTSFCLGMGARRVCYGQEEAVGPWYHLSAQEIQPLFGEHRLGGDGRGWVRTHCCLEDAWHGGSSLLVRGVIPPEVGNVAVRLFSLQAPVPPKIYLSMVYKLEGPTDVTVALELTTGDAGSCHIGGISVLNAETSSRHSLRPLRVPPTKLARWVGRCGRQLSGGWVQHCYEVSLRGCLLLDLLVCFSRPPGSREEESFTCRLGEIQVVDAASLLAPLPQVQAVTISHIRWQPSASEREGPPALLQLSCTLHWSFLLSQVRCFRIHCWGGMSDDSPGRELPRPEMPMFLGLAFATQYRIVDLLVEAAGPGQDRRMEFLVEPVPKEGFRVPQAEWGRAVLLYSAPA
UniProt O14638, whole entry, looked up: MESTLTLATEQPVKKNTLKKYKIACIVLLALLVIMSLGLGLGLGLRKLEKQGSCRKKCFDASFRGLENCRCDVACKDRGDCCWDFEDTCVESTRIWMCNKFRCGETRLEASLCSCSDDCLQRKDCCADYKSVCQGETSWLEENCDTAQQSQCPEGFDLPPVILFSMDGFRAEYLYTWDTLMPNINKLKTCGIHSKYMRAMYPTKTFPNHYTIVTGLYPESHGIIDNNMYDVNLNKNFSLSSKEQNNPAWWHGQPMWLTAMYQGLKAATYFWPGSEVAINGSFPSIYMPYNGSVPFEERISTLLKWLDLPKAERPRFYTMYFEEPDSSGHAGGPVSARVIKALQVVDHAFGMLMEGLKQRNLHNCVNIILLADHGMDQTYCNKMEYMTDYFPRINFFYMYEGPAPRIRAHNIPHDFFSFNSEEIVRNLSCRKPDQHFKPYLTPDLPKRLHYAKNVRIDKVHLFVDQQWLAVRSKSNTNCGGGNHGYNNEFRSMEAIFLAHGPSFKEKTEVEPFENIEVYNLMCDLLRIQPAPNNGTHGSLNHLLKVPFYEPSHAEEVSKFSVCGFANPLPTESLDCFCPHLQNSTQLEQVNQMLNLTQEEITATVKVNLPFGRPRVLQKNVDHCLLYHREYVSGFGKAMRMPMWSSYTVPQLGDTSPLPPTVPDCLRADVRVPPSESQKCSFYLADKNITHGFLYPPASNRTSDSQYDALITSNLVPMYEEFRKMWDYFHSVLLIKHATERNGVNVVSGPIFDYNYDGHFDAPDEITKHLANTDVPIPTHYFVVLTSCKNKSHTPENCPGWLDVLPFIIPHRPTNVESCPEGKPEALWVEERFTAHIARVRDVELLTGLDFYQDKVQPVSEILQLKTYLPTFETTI
UniProt Q14249: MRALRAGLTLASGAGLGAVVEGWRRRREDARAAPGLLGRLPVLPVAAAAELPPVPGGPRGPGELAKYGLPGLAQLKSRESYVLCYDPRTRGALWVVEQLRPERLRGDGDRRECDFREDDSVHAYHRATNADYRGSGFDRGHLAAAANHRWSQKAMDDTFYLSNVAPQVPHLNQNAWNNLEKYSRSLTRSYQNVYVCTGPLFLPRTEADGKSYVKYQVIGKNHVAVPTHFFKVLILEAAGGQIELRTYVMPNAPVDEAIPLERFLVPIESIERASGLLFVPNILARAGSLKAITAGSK
UniProt Q9Y6I3: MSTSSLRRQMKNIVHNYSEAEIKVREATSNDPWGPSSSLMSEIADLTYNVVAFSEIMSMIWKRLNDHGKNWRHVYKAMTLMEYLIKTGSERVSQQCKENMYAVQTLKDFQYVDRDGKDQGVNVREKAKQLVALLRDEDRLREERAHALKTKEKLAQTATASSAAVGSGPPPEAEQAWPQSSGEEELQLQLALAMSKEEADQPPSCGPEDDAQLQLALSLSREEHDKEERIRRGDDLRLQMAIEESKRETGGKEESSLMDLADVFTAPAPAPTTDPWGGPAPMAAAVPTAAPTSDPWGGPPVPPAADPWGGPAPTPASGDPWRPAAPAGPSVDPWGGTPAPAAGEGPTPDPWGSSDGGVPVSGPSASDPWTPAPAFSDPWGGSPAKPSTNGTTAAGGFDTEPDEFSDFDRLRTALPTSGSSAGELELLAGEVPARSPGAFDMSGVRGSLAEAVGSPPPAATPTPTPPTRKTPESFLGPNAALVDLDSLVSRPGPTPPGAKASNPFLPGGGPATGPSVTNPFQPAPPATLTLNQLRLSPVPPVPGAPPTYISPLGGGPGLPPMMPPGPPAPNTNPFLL
UniProt P50402: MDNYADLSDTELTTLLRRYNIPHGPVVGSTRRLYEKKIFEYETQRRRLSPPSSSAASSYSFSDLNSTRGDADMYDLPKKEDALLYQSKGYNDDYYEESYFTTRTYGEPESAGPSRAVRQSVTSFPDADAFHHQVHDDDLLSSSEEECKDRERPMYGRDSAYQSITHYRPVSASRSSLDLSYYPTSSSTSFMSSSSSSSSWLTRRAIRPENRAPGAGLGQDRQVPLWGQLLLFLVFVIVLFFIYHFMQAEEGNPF
UniProt O00303, whole entry, looked up: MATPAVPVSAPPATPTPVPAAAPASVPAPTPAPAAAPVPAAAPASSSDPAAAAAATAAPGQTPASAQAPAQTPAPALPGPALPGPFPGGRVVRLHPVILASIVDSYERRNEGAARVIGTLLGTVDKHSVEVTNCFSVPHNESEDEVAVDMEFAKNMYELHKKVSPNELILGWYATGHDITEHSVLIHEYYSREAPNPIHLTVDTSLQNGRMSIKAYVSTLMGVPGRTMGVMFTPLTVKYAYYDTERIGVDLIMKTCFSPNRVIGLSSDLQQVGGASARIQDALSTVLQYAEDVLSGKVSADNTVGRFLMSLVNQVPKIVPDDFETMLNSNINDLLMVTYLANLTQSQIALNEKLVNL
UniProt Q9NPA0: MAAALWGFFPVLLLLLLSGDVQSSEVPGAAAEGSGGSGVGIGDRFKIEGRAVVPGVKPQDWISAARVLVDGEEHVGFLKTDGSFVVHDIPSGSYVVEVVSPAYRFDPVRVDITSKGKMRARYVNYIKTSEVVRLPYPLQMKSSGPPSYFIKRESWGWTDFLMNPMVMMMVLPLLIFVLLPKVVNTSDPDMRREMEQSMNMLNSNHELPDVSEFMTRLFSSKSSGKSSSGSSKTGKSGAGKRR
UniProt P84090, whole entry, looked up: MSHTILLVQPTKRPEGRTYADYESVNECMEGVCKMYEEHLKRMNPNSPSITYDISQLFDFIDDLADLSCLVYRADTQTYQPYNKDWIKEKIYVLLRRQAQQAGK

log2 fold change, inactive:
ENSA isoform 3 (UniProt O43768) -0.053, EMP3 (UniProt P54852) 0.022, EIF4E isoform 2 (UniProt P06730) 0.075, ENTPD5 (UniProt O75356) 0.005, EPRS (UniProt P07814) 0.107, EIF2B4 isoform 2 (UniProt Q9UI10) 0.162, EMC4 (UniProt Q5J8M3) -0.011, ELP2 isoform 6 (UniProt Q6IA86) -0.003, ENGASE (UniProt Q8NFI3) -0.056, ENPP3 (UniProt O14638) -0.036, ENDOG (UniProt Q14249) -0.081, EPN1 (UniProt Q9Y6I3) -0.079, EMD (UniProt P50402) -0.11

Compound: COc1cc(Nc2ncc3c(n2)-c2ccc(Cl)cc2C(c2c(F)cccc2OC)=NC3)ccc1C(=O)O [alisertib]
Experiment: as above
How it was run: as §1

log2 fold change, inactive:
EIF3G (UniProt K7ER90) 0.025, EP300 (UniProt Q09472) -0.121, ERGIC2 (UniProt Q96RQ1) -0.032, ERAL1 (UniProt O75616) -0.008, EIF3F (UniProt O00303) 0.002, EMC3 (UniProt Q9P0I2) 0.047, ELMO1 (UniProt Q92556) 0.111, ERC1 (UniProt X6RLX0) -0.008, EIF3B isoform 2 (UniProt P55884) -0.013, ERI1 (UniProt Q8IV48) -0.015, ENY2 (UniProt Q9NPA8) 0.024, EMC7 (UniProt Q9NPA0) 0.001, EMC6 (UniProt Q9BV81) -0.235, EIF2D (UniProt P41214) 0.013, EIF2S3 (UniProt P41091) 0.014, ELF2 (UniProt Q15723) -0.101, ERH (UniProt P84090) 0.082, EPHX2 (UniProt P34913) -0.045, EPS15L1 isoform 2 (UniProt Q9UBC2) -0.02, ERCC4 (UniProt Q92889) 0.047, ERCC3 (UniProt P19447) -0.057, EPPK1 (UniProt P58107) 0, EIF6 (UniProt P56537) -0.012, ENSA isoform 3 (UniProt O43768) -0.014, EMP3 (UniProt P54852) 0.053, EIF4E isoform 2 (UniProt P06730) 0.01, ENTPD5 (UniProt O75356) -0.027, EPRS (UniProt P07814) 0.015, EIF2B4 isoform 2 (UniProt Q9UI10) -0.014, EMC4 (UniProt Q5J8M3) 0.012, ELP2 isoform 6 (UniProt Q6IA86) -0.009, ENGASE (UniProt Q8NFI3) 0.025, ENPP3 (UniProt O14638) -0.004, ENDOG (UniProt Q14249) 0.019, EPN1 (UniProt Q9Y6I3) -0.019, EMD (UniProt P50402) -0.008

Compound: COc1cc2nc(-c3cc(F)ccc3O)nc(N[C@@H]3CNC[C@H]3C(C)(C)O)c2cc1OC
Experiment: as above
How it was run: as §1

log2 fold change, inactive:
EIF3G (UniProt K7ER90) -0.01, EP300 (UniProt Q09472) -0.056, ERGIC2 (UniProt Q96RQ1) -0.111, ERAL1 (UniProt O75616) 0.016, EIF3F (UniProt O00303) 0.019, EMC3 (UniProt Q9P0I2) -0.013, ELMO1 (UniProt Q92556) 0.003, ERC1 (UniProt X6RLX0) 0.002, EIF3B isoform 2 (UniProt P55884) -0.006, ERI1 (UniProt Q8IV48) -0.02, ENY2 (UniProt Q9NPA8) -0.019, EMC7 (UniProt Q9NPA0) 0.017, EMC6 (UniProt Q9BV81) -0.081, EIF2D (UniProt P41214) -0.018, EIF2S3 (UniProt P41091) -0.009, ELF2 (UniProt Q15723) -0.06, ERH (UniProt P84090) -0.043, EPHX2 (UniProt P34913) -0.007, EPS15L1 isoform 2 (UniProt Q9UBC2) 0.013, ERCC4 (UniProt Q92889) 0.024, ERCC3 (UniProt P19447) 0.021, EPPK1 (UniProt P58107) 0.044, EIF6 (UniProt P56537) 0.009, ENSA isoform 3 (UniProt O43768) 0.001, EMP3 (UniProt P54852) 0.052, EIF4E isoform 2 (UniProt P06730) -0.034, ENTPD5 (UniProt O75356) 0.067, EPRS (UniProt P07814) -0.01, EIF2B4 isoform 2 (UniProt Q9UI10) 0.016, EMC4 (UniProt Q5J8M3) 0.002, ELP2 isoform 6 (UniProt Q6IA86) 0.002, ENGASE (UniProt Q8NFI3) -0.015, ENPP3 (UniProt O14638) 0.01, ENDOG (UniProt Q14249) 0.009, EPN1 (UniProt Q9Y6I3) 0.011, EMD (UniProt P50402) -0.011

Reference: the supplement of paper PMC10849652
